Test results: US20250290928A1, “METHOD, KIT AND DEVICE FOR DETECTING EXTRACELLULAR VESICLES” (priority 2022, published 2025)

System: MMP in the MDA-MB-231-derived extracellular vesicles
Experiment: Digital detection of MDA-MB-231-derived extracellular vesicles through MMP activity in wells (SB substrates)
Assay type: biochemical, Human
Details: 24 hr; for Double-positive ratio 1 (double-positives with respect to all the positives) / Double-positive ratio 2 (double-positives with respect to the positives for any one of SB2, SB6, SB7, SB9, and SB10) / Double-positive ratio 3 (double-positives with respect to the positives for Custom #2T) / Expected value λ / Number of positives / Positive ratio / Expected value λ (×1): MP; for Expected value λ (×1): at x1
Experimental: The concentration of the solution is 10 μg/mL. […] The solution was further diluted 2-fold to prepare a standard sample at a concentration of x1/4, further diluted 3-fold to prepare a standard sample at a concentration of x1/12, and further diluted 3-fold to prepare a standard sample at a concentration of x1/36. Thus, the standard samples with four concentrations were prepared.
In addition, 1 mM Alexa Fluor 647 was used as a standard fluorescent substance, and each of the MMP14 detection solutions contained the standard fluorescent substance at a final concentration of 2 μM.
50 μL of each of the MMP detection solutions was added to 50 μL of each of the samples, a reaction was performed at 30° C., and MMP activity was evaluated.

[1] = MP with #2T, average of the results under the three conditions

In the case of “QXL520-Pro-Leu-Gly-Met-Trp-Ser-Arg-Lys(5-FAM)-NH2 (PLGMWSRK; QXL520, 5-FAM, C-terminal amide; printed: Pro-Leu-Gly-Met-Trp-Ser-Arg-Lys) [SB6]”, the “Double-positive ratio 1 Average” value [1] is reported as 0.1321, the “Double-positive ratio 2 Average” value [1] is reported as 0.1542 and the “Double-positive ratio 3 Average” value [1] is reported as 0.4855. For the same substance, the “SB Expected value λ Average” value [1] was 0.7282, the “Double-positive ratio 1 (double-positives with respect to all the positives)” value (1.25 μM with 1.25 μM #2T) was 0.1612 and the “Double-positive ratio 2 (double-positives with respect to the positives for any one of SB2, SB6, SB7, SB9, and SB10)” value (1.25 μM with 1.25 μM #2T) was 0.1955. The “Double-positive ratio 3 (double-positives with respect to the positives for Custom #2T)” value (1.25 μM with 1.25 μM #2T) was 0.4785, the “Expected value λ” value (1.25 μM with 1.25 μM #2T) was 0.5463 and the Number of positives (1.25 μM with 1.25 μM #2T) was 11,927. The Positive ratio (1.25 μM with 1.25 μM #2T) was 0.4209, the “Expected value λ (×1)” value (1.25 μM with 1.25 μM #2T) was 1.639 and the “Double-positive ratio 1 (double-positives with respect to all the positives)” value (2.5 μM with 2.5 μM #2T) was 0.09501. The “Double-positive ratio 2 (double-positives with respect to the positives for any one of SB2, SB6, SB7, SB9, and SB10)” value (2.5 μM with 2.5 μM #2T) was 0.1117, the “Double-positive ratio 3 (double-positives with respect to the positives for Custom #2T)” value (2.5 μM with 2.5 μM #2T) was 0.3889 and the “Expected value λ” value (2.5 μM with 2.5 μM #2T) was 0.9683. For the same substance, the Number of positives (2.5 μM with 2.5 μM #2T) was 17,610, the Positive ratio (2.5 μM with 2.5 μM #2T) was 0.6203 and the “Expected value λ (×1)” value (2.5 μM with 2.5 μM #2T) was 2.905. For the same substance, the “Double-positive ratio 1 (double-positives with respect to all the positives)” value (5 μM with 5 μM #2T) was 0.1403, the “Double-positive ratio 2 (double-positives with respect to the positives for any one of SB2, SB6, SB7, SB9, and SB10)” value (5 μM with 5 μM #2T) was 0.1555 and the “Double-positive ratio 3 (double-positives with respect to the positives for Custom #2T)” value (5 μM with 5 μM #2T) was 0.5892. For the same substance, the “Expected value λ” value (5 μM with 5 μM #2T) was 0.6698, the Number of positives (5 μM with 5 μM #2T) was 13,872 and the Positive ratio (5 μM with 5 μM #2T) was 0.4882. For the same substance, the “Expected value λ (×1)” value (5 μM with 5 μM #2T) was 2.01.
